Measured values: article PMC5511134
No constants are given. Whether binding was seen depends on the method and setting. Some binding calls cover weakened binding; strength is not graded here.

Amino acid sequences for entries named in this document (tags omitted). Residues count along the entry.
UniProt Q91ZX7, residues 20-4545: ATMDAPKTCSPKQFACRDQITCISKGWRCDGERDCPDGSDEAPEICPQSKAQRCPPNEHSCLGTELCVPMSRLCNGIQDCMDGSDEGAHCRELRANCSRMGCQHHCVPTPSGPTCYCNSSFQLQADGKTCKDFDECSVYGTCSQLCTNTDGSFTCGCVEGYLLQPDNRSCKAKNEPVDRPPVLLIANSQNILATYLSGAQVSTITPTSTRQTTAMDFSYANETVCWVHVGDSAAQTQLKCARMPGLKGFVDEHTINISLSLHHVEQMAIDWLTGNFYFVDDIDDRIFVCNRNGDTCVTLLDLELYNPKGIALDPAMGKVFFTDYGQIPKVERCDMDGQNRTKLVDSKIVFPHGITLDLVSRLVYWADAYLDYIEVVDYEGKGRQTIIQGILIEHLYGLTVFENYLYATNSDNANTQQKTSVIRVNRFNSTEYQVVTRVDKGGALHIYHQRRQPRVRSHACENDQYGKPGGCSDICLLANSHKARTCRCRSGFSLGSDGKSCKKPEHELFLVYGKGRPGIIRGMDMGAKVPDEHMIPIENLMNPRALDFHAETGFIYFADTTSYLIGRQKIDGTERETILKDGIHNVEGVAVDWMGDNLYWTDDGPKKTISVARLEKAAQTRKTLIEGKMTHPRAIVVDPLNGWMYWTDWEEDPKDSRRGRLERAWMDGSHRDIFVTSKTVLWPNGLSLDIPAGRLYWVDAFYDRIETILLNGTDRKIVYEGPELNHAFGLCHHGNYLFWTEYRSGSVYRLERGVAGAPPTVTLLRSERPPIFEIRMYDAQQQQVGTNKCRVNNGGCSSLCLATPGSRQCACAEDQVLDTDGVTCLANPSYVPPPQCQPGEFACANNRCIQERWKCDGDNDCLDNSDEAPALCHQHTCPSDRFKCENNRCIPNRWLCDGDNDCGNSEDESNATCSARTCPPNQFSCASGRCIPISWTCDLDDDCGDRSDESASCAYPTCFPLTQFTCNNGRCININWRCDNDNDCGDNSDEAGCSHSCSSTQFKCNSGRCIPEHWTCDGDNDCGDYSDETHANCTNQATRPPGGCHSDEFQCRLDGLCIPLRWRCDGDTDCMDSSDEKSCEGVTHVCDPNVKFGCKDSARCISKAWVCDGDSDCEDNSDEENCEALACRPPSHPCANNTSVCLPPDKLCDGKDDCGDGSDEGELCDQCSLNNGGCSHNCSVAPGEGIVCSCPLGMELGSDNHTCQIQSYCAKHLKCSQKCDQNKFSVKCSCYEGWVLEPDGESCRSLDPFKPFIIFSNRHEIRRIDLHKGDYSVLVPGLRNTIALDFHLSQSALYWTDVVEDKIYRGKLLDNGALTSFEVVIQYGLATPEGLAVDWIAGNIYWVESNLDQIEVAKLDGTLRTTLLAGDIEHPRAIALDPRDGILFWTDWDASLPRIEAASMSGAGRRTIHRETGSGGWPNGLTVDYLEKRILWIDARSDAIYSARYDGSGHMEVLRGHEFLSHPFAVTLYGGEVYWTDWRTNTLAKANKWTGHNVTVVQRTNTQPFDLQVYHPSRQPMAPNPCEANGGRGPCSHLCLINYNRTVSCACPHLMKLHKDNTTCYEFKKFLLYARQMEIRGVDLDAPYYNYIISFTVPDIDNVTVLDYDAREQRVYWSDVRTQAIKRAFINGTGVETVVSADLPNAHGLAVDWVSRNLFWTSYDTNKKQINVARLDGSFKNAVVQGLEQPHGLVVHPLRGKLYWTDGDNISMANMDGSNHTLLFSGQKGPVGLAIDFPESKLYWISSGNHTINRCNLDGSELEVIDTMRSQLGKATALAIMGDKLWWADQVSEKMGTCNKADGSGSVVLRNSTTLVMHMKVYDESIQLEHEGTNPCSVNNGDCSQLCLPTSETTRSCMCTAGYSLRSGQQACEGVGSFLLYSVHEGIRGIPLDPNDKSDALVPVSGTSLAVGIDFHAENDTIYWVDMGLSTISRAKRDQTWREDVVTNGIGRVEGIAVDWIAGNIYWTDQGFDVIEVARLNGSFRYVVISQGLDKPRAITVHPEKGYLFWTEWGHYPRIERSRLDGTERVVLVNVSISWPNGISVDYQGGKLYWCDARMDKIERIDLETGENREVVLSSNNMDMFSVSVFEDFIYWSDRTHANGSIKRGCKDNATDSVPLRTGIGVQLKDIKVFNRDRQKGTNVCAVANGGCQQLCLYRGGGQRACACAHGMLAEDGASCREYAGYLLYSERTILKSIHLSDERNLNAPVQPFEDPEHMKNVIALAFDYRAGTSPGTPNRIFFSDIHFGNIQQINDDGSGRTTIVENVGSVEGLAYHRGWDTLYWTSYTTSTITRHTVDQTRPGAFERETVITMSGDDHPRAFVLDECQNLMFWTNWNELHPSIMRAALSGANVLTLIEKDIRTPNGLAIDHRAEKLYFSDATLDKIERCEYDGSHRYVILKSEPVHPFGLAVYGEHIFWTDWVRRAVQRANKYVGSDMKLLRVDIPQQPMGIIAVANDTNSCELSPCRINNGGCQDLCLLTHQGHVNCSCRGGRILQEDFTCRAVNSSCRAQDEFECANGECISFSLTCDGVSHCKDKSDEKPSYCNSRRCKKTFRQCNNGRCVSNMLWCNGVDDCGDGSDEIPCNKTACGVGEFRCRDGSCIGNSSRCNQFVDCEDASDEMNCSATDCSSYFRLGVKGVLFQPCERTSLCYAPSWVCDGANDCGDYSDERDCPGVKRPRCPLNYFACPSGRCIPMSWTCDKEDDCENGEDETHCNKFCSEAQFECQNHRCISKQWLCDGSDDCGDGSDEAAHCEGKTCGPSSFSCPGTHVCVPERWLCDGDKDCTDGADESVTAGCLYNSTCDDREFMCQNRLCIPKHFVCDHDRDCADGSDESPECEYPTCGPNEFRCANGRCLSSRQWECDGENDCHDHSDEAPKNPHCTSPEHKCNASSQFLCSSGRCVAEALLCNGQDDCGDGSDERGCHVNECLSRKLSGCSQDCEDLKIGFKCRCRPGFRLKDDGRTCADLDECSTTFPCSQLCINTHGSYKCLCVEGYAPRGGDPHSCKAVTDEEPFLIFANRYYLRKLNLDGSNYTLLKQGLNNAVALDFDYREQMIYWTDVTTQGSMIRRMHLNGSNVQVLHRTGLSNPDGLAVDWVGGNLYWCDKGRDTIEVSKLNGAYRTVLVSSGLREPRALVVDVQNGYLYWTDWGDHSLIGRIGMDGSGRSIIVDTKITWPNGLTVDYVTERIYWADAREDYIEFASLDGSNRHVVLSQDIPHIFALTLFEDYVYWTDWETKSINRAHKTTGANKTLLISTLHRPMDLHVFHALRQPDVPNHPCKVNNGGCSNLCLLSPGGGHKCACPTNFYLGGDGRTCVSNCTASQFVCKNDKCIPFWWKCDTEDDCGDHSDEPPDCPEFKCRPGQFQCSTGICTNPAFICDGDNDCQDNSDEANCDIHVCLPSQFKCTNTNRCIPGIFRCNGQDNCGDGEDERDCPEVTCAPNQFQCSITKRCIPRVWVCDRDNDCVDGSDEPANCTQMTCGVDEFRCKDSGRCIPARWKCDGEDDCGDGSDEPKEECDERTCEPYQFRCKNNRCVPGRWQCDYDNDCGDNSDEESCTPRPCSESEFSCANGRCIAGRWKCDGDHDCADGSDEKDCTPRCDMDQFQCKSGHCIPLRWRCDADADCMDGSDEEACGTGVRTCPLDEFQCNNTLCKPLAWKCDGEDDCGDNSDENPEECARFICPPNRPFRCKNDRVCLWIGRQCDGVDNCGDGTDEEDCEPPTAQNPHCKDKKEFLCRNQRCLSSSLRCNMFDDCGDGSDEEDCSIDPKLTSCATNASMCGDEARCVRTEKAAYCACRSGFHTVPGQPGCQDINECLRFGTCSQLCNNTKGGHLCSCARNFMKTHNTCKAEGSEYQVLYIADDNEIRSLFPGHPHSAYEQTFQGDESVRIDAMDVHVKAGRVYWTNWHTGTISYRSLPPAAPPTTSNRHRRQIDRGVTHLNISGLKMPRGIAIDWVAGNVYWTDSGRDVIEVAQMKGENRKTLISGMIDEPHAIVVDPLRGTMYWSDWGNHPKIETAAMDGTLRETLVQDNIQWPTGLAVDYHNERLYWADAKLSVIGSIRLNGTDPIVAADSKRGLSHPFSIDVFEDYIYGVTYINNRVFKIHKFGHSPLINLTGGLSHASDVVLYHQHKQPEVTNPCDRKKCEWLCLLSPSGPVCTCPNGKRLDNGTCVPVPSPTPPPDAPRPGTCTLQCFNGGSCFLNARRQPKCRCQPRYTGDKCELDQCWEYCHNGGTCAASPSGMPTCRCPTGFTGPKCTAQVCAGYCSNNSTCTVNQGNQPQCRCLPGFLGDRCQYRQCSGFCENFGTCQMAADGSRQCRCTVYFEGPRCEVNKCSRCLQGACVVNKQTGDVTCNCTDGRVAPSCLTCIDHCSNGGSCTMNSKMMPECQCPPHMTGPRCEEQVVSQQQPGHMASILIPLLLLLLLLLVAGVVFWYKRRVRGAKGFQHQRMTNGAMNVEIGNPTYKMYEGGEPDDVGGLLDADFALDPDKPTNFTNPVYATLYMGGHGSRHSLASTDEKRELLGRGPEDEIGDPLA
UniProt P30533, residues 35-357: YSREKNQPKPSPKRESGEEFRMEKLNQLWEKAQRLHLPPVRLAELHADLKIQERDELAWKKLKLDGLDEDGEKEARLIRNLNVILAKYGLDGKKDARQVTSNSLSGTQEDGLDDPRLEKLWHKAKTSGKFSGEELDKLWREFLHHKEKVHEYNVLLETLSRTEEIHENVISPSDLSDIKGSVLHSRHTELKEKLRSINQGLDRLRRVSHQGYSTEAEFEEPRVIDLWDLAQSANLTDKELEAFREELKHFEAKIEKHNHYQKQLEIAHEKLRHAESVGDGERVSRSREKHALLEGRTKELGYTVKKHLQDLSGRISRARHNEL

Molecular target: low-density lipoprotein receptor-related protein-1 (LRP-1) on mouse cortical neurons (mouse (endogenous in cortical neurons)) (UniProt Q91ZX7)
Test: fluorescence of ligand bound to the cell surface (released by pronase, spectrofluorimetry); mouse cortical neurons incubated at 4 °C with 5 nM eFluor-conjugated TIMP-1 or mutants, with or without 500 nM RAP or 30 µg/mL LRP-1 blocking antibodies R2629; washed, surface-digested with 0.1% pronase, fluorescence of the supernatant; only the binder purified

“Recombinant RAP (from UniProt P30533 35-357)” was tested, and the binding was “binds”.
